assay: Dyeing of hair strands with dyeing cream containing 2-Chlor-4-aminophenol as developer and a coupler; design: species or system Menschen; conditions: dyeing cream with 20mMol 2-Chlor-4-aminophenol and 20mMol coupler, pH 9,0; applied without added oxidising agent, ratio cream:hair 4 : 1; 30min at 32°C; strands 80% grey, not pretreated
Procedure: Die Substanzen Hydrenol® D, Lorol® und Eumulgin® B2 wurden bei 80°C aufgeschmolzen, mit dem 80°C heißem Wasser, enthaltend Texapon® NSO und Dehyton® K, vermischt und unter starkem Rühren emulgiert. Danach wurde die Emulsion unter schwachem Rühren abgekühlt. Die Farbstoffvorprodukte wurden in dem 50°C heißem Wasser unter Zugabe von Natriumsulfit, Ammoniumsulfat und Ammoniak gelöst. Diese Farbstoffvorproduktlösung wurde zur Emulsion gegeben, mit Ammoniak der pH-Wert eingestellt und mit Wasser auf 100Gew.-% aufgefüllt. Es wurde bis zum Erreichen der Raumtemperatur weitergerührt.
Die so erhaltene Färbecreme wurde auf 5cm lange Strähnen standardisierten, zu 80% ergrauten, aber nicht besonders vorbehandelten Menschenhaares (Kerling Naturweiß) aufgetragen (Mengenverhältnis Farbstoffmischung: Haar betrug 4 : 1). Nach 30min Einwirkzeit bei 32°C wurde das Haar gespült, mit einem üblichen Haarwaschmittel ausgewaschen und anschließend getrocknet. Die Färbeergebnisse sind Tabelle I zu entnehmen. Tabelle I

Row | Compound | Farbnuance
1 | Nc1ccc(OCCCOc2ccc(N)cc2N)c(N)c1 [1,3-Bis-(2',4'-diaminophenoxy)-propan] | braunorange
2 | Cc1c(NCCO)cccc1NCCO [2,6-Bis-(2'-hydroxyethylamino)-toluol] | tiefviolett
3 | COc1ccc(NCCO)cc1N [2-Amino-4-(2'-hydroxyethylamino)-anisol] | rubin

— patent publication EP1414391B1, “Composition and METHOD of GENTLY colouring HAIR using 2-chloro-4-aminophenol as oxidation base” (Henkel Kommanditgesellschaft auf Aktien, priority 2000, dated 2002)
